According to paper PMC9814157:
These are yes or no findings as the source states them, for the method shown. In cells and extracts the contact can be indirect.

Target: adaptor protein Grb2 (mouse (endogenous in splenic B cells)), Q60631
Assay: co-IP; lysates of β1^WT and β1^KO transitional B cells incubated with beads cross-linked with α-Grb2 or control α-Ig antibodies; immunoblot for Grb2 and FAK; primary cells without activation of integrins
Settings: remark: other sources report otherwise

B1: focal adhesion kinase (FAK), P34152 1-1052 (protein)
chain: MAAAYLDPNLNHTPSSSTKTHLGTGMERSPGAMERVLKVFHYFESSSEPTTWASIIRHGDATDVRGIIQKIVDSHKVKHVACYGFRLSHLRSEEVHWLHVDMGVSSVREKYELAHPPEEWKYELRIRYLPKGFLNQFTEDKPTLNFFYQQVKSDYMQEIADQVDQEIALKLGCLEIRRSYWEMRGNALEKKSNYEVLEKDVGLKRFFPKSLLDSVKAKTLRKLIQQTFRQFANLNREESILKFFEILSPVYRFDKECFKCALGSSWIISVELAIGPEEGISYLTDKGCNPTHLADFNQVQTIQYSNSEDKDRKGMLQLKIAGAPEPLTVTAPSLTIAENMADLIDGYCRLVNGATQSFIIRPQKEGERALPSIPKLANSEKQGMRTHAVSVSETDDYAEIIDEEDTYTMPSTRDYEIQRERIELGRCIGEGQFGDVHQGVYLSPENPALAVAIKTCKNCTSDSVREKFLQEALTMRQFDHPHIVKLIGVITENPVWIIMELCTLGELRSFLQVRKYSLDLASLILYAYQLSTALAYLESKRFVHRDIAARNVLVSSNDCVKLGDFGLSRYMEDSTYYKASKGKLPIKWMAPESINFRRFTSASDVWMFGVCMWEILMHGVKPFQGVKNNDVIGRIENGERLPMPPNCPPTLYSLMTKCWAYDPSRRPRFTELKAQLSTILEEEKVQQEERMRMESRRQATVSWDSGGSDEAPPKPSRPGYPSPRSSEGFYPSPQHMVQTNHYQVSGYPGSHGIPAMAGSIYQGQASLLDQTELWNHRPQEMSMWQPSVEDSAALDLRGMGQVLPPHLMEERLIRQQQEMEEDQRWLEKEERFLKPDVRLSRGSIDREDGSFQGPTGNQHIYQPVGKPDPAAPPKKPPRPGAPGHLSNLSSISSPADSYNEGVKLQPQEISPPPTANLDRSNDKVYENVTGLVKAVIEMSSKIQPAPPEEYVPMVKEVGLALRTLLATVDETIPALPASTHREIEMAQKLLNSDLGELISKMKLAQQYVMTSLQQEYKKQMLTAAHALAVDAKNLLDVIDQARLKMLGQTRPH
**Q.** For B1, which binding is on record?
**A.** no binding
